Data as given in patent US20160152947A1 (BOARD OF REGENTS OF THE UNIVERSITY OF OKLAHOMA, published 2016).
No constants are given. Whether binding was seen depends on the method and setting. Some results given as binding are weak or reduced against the parent protein; the word gives no strength. For some assays here: Tags and fused reporters may be left off the sequences shown.

Protein sequences, listed by entry. Tags and fused reporters are not part of them. Lines headed by an entry give the natural chain unless they say otherwise; changes in a name come on top. Chains listed by the source or under a name are the forms on record and can include a tag or linker. Residues count along the entry.
MBP-Th-LGR4 LRR1-14 (MBP-Th-hLGR4.23-383-H6) (Q9BXB1, form named): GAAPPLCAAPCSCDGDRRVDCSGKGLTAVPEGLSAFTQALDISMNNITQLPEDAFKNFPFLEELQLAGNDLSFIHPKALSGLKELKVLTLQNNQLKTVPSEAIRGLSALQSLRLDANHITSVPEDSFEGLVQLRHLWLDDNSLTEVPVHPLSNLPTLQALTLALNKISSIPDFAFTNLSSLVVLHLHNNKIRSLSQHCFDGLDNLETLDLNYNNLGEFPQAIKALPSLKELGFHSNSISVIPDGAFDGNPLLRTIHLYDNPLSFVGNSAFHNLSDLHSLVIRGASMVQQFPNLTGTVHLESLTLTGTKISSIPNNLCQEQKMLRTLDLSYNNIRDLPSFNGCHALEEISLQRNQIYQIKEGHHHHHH
Biotin-ZNRF3 ECD (Avi tag-ZNRF3.56-216-H6, MBP removed by thrombin) (Q9ULT6, form named): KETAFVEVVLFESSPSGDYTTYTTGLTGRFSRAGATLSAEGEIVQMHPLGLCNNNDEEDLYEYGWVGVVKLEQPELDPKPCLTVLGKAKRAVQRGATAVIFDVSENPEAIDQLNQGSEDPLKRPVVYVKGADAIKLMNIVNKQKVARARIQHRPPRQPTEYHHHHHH
UniProt Q2I0M5, residues 20-234: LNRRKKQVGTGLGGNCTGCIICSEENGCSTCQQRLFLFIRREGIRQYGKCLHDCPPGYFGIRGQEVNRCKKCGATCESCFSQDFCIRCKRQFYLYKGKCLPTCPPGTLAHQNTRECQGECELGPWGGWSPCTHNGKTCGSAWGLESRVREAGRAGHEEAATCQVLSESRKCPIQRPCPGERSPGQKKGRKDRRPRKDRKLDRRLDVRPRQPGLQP

Assays:
[1] = molecular target: MBP-Th-LGR4 LRR1-14 (MBP-Th-hLGR4.23-383-H6) (human) (UniProt Q9BXB1); assay: TR-FRET competition binding to LGR4 ECD
[2] = molecular target: Biotin-ZNRF3 ECD (Avi tag-ZNRF3.56-216-H6, MBP removed by thrombin) (human) (UniProt Q9ULT6); assay: summary of the ZNRF3 ECD binding assays
[3] = molecular target: Biotin-ZNRF3 ECD (Avi tag-ZNRF3.56-216-H6, MBP removed by thrombin) (human) (UniProt Q9ULT6); assay: AlphaLISA luminescent proximity assay, saturation format, 3 nM Biotin-ZNRF3 ECD

| binding [1] | binding [2] | binding [3] | Molecule |
| --- | --- | --- | --- |
| binds | – | – | commercial full-length RSPO4 produced in CHO cells (R&D Systems, catalog number 4575-RS-025/CF) (from UniProt Q2I0M5 20-234) (ligand) |
| – | binds | binds | MBP-Th-RSPO3 Fu1-Fu2-H6 (MBP-Th-RSPO3.22-146-H6) (ligand, Produced in E. coli; also called pAP355; not shown: thrombin cut site (Th) linker) QNASRGRRQRRMHPNVSQGCQGGCATCSDYNGCLSCKPRLFFALERIGMKQIGVCLSSCPSGYYGTRYPDINKCTKCKADCDTCFNKNFCTKCKSGFYLHLGKCLDNCPEGLEANNHTMECVSIVHHHHHH |
| – | binds | binds | MBP-Th-RSPO1 Fu1-Fu2-H6 (ligand, Produced in E. coli; also called MBP-Th-hRSPO1 Fu1-Fu2-H6; not shown: thrombin cut site (Th) linker) SRGIKGKRQRRISAEGSQACAKGCELCSEVNGCLKCSPKLFILLERNDIRQVGVCLPSCPPGYFDARNPDMNKCIKCKIEHCEACFSHNFCTKCKEGLYLHKGRCYPACPEGSSAANGTMECSSPHHHHHH |
